Results are given in words; binding and its absence hold for the method and conditions named. In cells and extracts the contact can be indirect.
Molecular target: TLR4 (toll-like receptor 4), endogenous in THP-1 macrophages (human (endogenous in THP-1)) (UniProt O00206)
Assay: proximity ligation; THP-1 macrophages (PMA) incubated with GST, GST-HBeAg or HBcAg (10 μg/mL each) for 1 hour at 4°C, fixed with acetone, TLR4 and GST primary antibodies overnight at 4°C; Duolink PLA In Situ Red; only the binder purified

By UniProt entry, the sequences of proteins in these tests, tags left out. Residues count along the entry.
UniProt O00206, residues 24-839: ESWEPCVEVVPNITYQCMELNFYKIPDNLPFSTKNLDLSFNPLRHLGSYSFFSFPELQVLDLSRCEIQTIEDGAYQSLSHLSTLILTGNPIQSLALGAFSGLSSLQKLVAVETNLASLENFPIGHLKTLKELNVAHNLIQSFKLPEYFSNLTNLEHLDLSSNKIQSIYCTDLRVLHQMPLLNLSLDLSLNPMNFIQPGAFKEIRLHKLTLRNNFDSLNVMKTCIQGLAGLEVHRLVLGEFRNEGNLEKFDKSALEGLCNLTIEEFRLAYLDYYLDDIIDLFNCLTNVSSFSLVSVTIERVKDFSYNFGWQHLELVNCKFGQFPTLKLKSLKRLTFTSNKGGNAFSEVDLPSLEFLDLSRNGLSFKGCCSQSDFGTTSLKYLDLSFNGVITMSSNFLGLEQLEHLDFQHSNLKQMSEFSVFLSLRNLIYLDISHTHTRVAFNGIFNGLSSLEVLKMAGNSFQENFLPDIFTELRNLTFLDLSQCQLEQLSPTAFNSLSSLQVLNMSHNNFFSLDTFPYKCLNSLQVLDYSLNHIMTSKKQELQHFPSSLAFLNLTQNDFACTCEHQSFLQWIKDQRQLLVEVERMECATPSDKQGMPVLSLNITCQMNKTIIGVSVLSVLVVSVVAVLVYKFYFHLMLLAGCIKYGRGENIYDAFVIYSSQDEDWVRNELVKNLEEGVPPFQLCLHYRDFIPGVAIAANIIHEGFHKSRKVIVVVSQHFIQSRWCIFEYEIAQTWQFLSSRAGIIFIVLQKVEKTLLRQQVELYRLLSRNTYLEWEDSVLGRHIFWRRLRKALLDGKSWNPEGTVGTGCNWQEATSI
UniProt P03146: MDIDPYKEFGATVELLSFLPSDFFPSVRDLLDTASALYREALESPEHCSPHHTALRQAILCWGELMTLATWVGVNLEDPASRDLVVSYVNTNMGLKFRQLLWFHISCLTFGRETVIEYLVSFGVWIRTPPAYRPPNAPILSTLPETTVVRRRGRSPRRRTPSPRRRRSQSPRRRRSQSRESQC

## HBcAg (hepatitis B virus core antigen), recombinant (from UniProt P03146 1-183)
  binding: no binding (tested: 10 μg/mL)
